# Screening data, single-dose tests

The chains behind the UniProt entries cited, without tags or fusion partners.
UniProt P9WFT3, whole entry: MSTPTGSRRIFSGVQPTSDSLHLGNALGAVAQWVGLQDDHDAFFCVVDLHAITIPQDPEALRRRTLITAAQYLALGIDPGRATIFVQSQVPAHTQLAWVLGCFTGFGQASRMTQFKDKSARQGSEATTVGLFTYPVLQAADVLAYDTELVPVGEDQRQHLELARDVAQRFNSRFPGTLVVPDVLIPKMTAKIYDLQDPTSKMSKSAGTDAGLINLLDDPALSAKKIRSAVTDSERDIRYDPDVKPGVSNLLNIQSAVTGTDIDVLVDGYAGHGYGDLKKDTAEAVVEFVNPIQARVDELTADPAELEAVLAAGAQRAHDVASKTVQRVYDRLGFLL
UniProt I6X8D2, whole entry: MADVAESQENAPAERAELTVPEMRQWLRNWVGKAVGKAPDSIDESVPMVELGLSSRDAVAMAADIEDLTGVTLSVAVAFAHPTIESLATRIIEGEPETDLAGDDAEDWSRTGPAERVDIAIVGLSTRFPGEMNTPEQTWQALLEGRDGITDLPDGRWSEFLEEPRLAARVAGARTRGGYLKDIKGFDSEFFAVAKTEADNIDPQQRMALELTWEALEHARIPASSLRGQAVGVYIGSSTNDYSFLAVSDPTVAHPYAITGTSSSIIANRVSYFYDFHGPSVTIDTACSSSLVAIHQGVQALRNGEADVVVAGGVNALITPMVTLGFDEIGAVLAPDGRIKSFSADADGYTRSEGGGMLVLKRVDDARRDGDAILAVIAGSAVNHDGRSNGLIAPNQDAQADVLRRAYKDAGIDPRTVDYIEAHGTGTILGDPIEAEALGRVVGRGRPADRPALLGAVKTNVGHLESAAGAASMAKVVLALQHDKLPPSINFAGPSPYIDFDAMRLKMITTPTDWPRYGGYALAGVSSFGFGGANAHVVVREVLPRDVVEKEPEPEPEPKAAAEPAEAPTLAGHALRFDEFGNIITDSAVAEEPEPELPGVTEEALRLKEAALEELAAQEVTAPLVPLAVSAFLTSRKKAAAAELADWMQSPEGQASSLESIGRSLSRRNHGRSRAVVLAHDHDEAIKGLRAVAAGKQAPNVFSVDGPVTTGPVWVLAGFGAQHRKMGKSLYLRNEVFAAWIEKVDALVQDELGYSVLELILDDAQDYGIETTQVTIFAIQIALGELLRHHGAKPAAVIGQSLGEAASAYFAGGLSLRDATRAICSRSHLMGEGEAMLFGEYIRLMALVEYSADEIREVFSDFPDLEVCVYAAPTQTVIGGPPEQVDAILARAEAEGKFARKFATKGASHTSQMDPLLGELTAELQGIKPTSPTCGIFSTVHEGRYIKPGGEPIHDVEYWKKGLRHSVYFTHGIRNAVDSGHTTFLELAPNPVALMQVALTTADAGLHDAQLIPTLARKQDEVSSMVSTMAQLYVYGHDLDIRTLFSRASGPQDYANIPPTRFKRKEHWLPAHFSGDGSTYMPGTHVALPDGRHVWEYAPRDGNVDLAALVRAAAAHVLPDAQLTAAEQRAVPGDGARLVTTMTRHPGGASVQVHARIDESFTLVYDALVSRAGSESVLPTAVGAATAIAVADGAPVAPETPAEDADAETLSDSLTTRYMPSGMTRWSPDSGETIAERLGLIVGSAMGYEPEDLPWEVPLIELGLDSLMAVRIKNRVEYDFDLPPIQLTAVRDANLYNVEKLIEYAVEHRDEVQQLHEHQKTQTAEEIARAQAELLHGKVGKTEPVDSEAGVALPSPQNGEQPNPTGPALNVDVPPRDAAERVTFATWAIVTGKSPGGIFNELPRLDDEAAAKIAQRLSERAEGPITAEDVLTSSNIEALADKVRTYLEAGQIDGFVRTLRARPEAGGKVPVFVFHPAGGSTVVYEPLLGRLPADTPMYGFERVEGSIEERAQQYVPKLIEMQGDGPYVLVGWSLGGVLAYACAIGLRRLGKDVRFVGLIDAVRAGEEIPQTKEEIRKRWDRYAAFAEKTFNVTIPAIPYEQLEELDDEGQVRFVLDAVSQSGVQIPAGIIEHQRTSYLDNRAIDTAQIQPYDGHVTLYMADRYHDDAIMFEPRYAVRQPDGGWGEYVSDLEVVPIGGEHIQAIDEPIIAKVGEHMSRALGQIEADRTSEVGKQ
UniProt P9WNZ1, whole entry: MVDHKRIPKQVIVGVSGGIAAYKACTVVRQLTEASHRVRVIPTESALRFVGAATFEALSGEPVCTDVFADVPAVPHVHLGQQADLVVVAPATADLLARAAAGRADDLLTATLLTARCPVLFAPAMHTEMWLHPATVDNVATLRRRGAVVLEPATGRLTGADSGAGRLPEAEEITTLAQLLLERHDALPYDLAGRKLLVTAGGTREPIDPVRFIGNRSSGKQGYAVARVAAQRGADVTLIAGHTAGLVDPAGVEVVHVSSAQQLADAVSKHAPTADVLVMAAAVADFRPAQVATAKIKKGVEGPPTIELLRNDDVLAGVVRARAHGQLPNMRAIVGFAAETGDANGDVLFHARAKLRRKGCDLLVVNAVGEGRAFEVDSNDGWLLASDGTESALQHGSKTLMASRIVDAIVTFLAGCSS

Data taken from ChEMBL document CHEMBL3988442, “University of Dundee, Small-Polar-MMV Screening Library” (2021).

A: 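Enzyme assay of tryptophanyl-tRNA synthetase; the read-out is not stated. Target: Tryptophan-tRNA ligase, Mycobacterium tuberculosis (UniProt P9WFT3). Compounds at 10 µM. Higher most likely means stronger inhibition; the record gives no direction and few retests gave an IC50. About 65,000 compounds were tested under these conditions; 0.098% (about 64) showed 50% or more at least once.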
B: 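Polyketide synthase Pks13, Mycobacterium tuberculosis (UniProt I6X8D2). Enzyme assay of the thioesterase domain of polyketide synthase 13; the read-out is not stated. Tested at 30 µM. The record gives no direction; the compounds picked for IC50 retests had high values, so higher reads as stronger inhibition. Of about 67,000 compounds tested this way, about 300 (0.46%) reached 50% or more in at least one test.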
C: 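Coenzyme A biosynthesis protein CoaBC, Mycobacterium tuberculosis (UniProt P9WNZ1). Enzyme assay of CoaBC with a phosphate dye (Biomol Green) read at 650 nm. Compounds at 30 µM. Direction is inferred from only a few compounds that gave an IC50; most scored high, so higher reads as stronger inhibition. Most strong results did not repeat in a second test. Size under these conditions: about 67,000 compounds, about 40 of them at 50% or above in at least one test.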

Results are given as percent effect.
The controls that fix the scale are not given in the record; negative values are as filed.
Compounds were drawn at random from those tested, without regard to their results.
A dash means the value is not listed here; it may have been measured.

| structure | A | B | C |
|---|---|---|---|
| `CCC1CN(C(=O)c2cccc(O)c2)CCC(=O)N1Cc1ccccc1` (stereo not shown) | -1.886 | -20.55 | -2.303 |
| `Cc1nccc(CNC(=O)NCC(C)Oc2ccccc2F)n1` (stereo not shown) | 0.641 | -12.17 | -0.7371 |
| `CN1CCC(N(C)CCC(=O)N2CCN(Cc3cccc(F)c3)CC2)C1` (stereo not shown) | 1.188 | -32.62 | -1.951 |
| `O=S1(=O)CCC(CNc2cc(-c3ccccc3)nc3ccnn23)C1` (stereo not shown) | 1.254 | 8.406 | 3.422 |
| `Cc1ccc(S(=O)(=O)NC(=O)c2cccc(OCC(N)=O)c2)s1` | 4.799 | -23.28 | 5.656 |
| `CCNc1ncc2c(n1)CN(c1ccc(CC)cc1)C2=O` | -3.109 | -20.27 | -1.155 |
| `OCCNC1CSCCc2ccccc21` (stereo not shown) | 2.037 | -25.19 | 4.39 |
| `CNc1nc2c(s1)C(=O)CN(C(=O)NCc1ccccc1)C2` | 2.449 | 20.03 | 3.259 |
| `CC(NC(=O)CN(C)C(C)C)c1ccc(Oc2cccnc2)c(F)c1` (stereo not shown) | -1.608 | -5.774 | -4.253 |
| `Cc1cc(CN(C)C(=O)NCc2ccnc(SC(C)(C)C)c2)no1` | -1.701 | -2.074 | -4.762 |
| `c1ccc2sc(CN3CCCC3c3noc(C4CC4)n3)nc2c1` (stereo not shown) | -0.09719 | 0.3248 | -2.361 |
| `CS(=O)(=O)N1CCc2c(cccc2NC(=O)CC(F)(F)F)C1` | -8.581 | -14.53 | 0.4049 |
| `COC(=O)c1ccc(S(=O)(=O)N2CCCn3ncnc32)s1` | -2.71 | 2.073 | 6.061 |
| `O=C(CCO)N1CC2(CCN(c3ccccc3)C2)C1` | 1.464 | -19.2 | 15.37 |
| `NC(=O)C1CCN(C(=O)CCSCc2ccc(Cl)c(Cl)c2)CC1` | -3.034 | 11.37 | 2.959 |
| `CC(C)CNC(=O)CNC(=O)Nc1cccc(Cl)c1-n1cccn1` | -5.322 | 3.311 | -6.776 |
| `C[C@@H]1CN(Cc2cccnc2)C[C@]1(C)O` | 3.055 | -4.005 | 2.066 |
| `Cc1cc(C2CCCN(C(=O)CCc3cscn3)C2)n[nH]1` (stereo not shown) | -0.8702 | -8.868 | 4.062 |
| `COCCN(Cc1ccc(F)cc1Cl)C(=O)c1cnn(C)c1C` | 6.261 | -20.84 | 3.846 |
| `COCCN1CCC2(CCN(Cc3cccs3)CC2)C1=O` | 5.297 | 18.09 | -6.774 |
| `CCN1CCN(C(=O)COCc2nc(-c3ccncc3)no2)CC1` | 1.577 | -25.64 | 12.06 |
| `CC(=O)N1CCN(CCNc2ncc(Br)cc2C)CC1` | -1.21 | 1.454 | 15.09 |
| `Clc1cncc(N2CCN(Cc3ccon3)CC2)n1` | 0.7342 | 2.693 | 1.157 |
| `CCC1CCCCN1CCNC(=O)N1CCN(Cc2ccon2)CC1` (stereo not shown) | 3.114 | -5.999 | -26.45 |
| `CN1CCN(C[C@H]2OC[C@@H]3CCN(C(=O)c4cnccn4)C[C@@H]32)CC1` | 0.7214 | -13.82 | 6.721 |
| `Cc1nnc(C(C)N(C)Cc2c(C)nn(-c3ccccc3C)c2C)o1` (stereo not shown) | -2.534 | -3.988 | 4.156 |
| `Cc1csc(C(=O)N2CC[C@H](Oc3cccnc3C)[C@@H](O)CC2)c1` | - | -24.09 | -1.456 |
| `Cc1nccc(N[C@H]2CN(C(=O)CN3CCCC3=O)C[C@@H]2C(C)C)n1` | 2.376 | 1.721 | 3.435 |
| `O=C(Cc1ccc(-n2cccn2)cc1)N1CCN2CCCCC2C1` (stereo not shown) | -3.125 | -8.35 | 3.781 |
| `CCCN(CCO)C(=O)C1CCC(=O)N(Cc2ccc(Cl)cc2)C1` (stereo not shown) | -7.869 | 2.73 | -3.306 |
| `CNC(=O)c1cn[nH]c1C1(C)CCCN(Cc2ccccn2)C1` (stereo not shown) | 0.9855 | 4.296 | 4.136 |
| `Cc1nccn1CC1CCCN1S(=O)(=O)Cc1ccccc1` (stereo not shown) | -0.3934 | -24.05 | 2.314 |
| `COc1ccc2cc(CNCc3c(C)nn(C)c3N(C)C)ccc2c1` | -2.401 | - | 8.265 |
| `CS(=O)(=O)CCN(CC1CCCO1)C1CCCC1` (stereo not shown) | 0.3666 | 3.509 | -6.341 |
| `CN(Cc1cncnc1)[C@@H]1CN(Cc2ccco2)C[C@@H]2CCCO[C@@H]21` | -0.5231 | -4.695 | -1.261 |
| `CC(C)[C@H](NS(C)(=O)=O)C(=O)NCc1cc(-c2ccccc2)n[nH]1` | - | 12.22 | 5.181 |
| `COc1ccc(CNC(=O)NCc2c(C)cc(C)[nH]c2=O)cc1` | -0.2924 | - | 8.514 |
| `O=C(c1ccsc1)N1C[C@@H]2CCN(C(=O)c3cscn3)[C@@H]2C1` | - | 6.754 | 0.4878 |
| `CCO[C@H]1CN(C)C[C@@H]1NC(=O)c1cc(C)nc2ccc(C)cc12` | 3.704 | -14.72 | 4.545 |
| `O=C([C@@H](O)Cc1ccccc1)N1CCCn2cncc2C1` | -2.738 | -19.74 | 9.307 |
| `O=C(CCN1CCCC(CO)(CC2CC2)C1)NCc1cccc(Cl)c1` (stereo not shown) | 2.417 | -36.97 | 5.275 |
| `Cc1cc(-c2cnc(N3CCCCCC3)nc2-c2cccnc2C)on1` | - | 12.83 | 2.107 |
| `O=C([C@@H]1COC[C@H]2CN(C3CCCCC3)C[C@H]21)N1CCOCC1` | -3.025 | -7.87 | 2.709 |
| `Fc1cnc(N2CCc3nnc(COc4ccccn4)n3CC2)nc1` | -4.866 | -32.03 | -3.75 |
| `CC1CCN(C(=O)c2sccc2-n2cnnn2)CC1` | -5.676 | -27.01 | 3.125 |
| `CCOCC(O)CN1CCN(C(=O)c2cc(F)cc(F)c2)CC1` (stereo not shown) | 2.756 | -2.445 | 1.673 |
| `CC(C)c1nc2n(n1)CC(NCc1cc3ccccc3o1)CC2` (stereo not shown) | -0.08223 | -13.14 | 2.331 |
| `CCc1cc(NCC(O)CN2CCCCC2)ncn1` (stereo not shown) | 2.196 | -1.356 | 2.751 |
| `CN(Cc1nc(CC2CC2)no1)CC1COc2ccccc2O1` (stereo not shown) | -0.2981 | 4.015 | -4.645 |
| `CC(C)(C)C(=O)CN1Cc2ccccc2NCCC1=O` | - | 5.693 | -2.331 |
| `CCOCCN1CCN(CC(=O)NC2(C#N)CCCC2)CC1C` (stereo not shown) | 11.75 | 14.16 | -3.828 |
| `N#CCCN1CCC(=Cc2ccccc2)CC1` | -4.815 | -2.86 | 2.696 |
| `CN(CC(=O)N1CCC(OCc2cccnc2)CC1)c1ccccc1` | -1.978 | -9.426 | 2.043 |
| `CC(C)N(C)S(=O)(=O)N(C)Cc1cnn(C)c1` | -4.374 | -13.94 | 8.333 |
| `Cc1cc(C(=O)NC2CCCc3c2cnn3-c2cccc(C)c2C)[nH]n1` (stereo not shown) | 2.026 | 6.36 | 3.308 |
| `O=C(c1ccsc1)N1C[C@@H]2OCCN(CCN3CCCC3)[C@@H]2C1` | 2.189 | -38.66 | 0.25 |
| `O=C(N[C@@H]1CCNC[C@H]1O)c1ccc(O)c(Cl)c1` | 0.4946 | -0.567 | 4 |
| `CN(Cc1cnn(C)c1)S(=O)(=O)N1CCc2ccccc2C1` | 33.36 | -8.177 | -7.158 |
| `CC(=O)Nc1ccc(/C=C/c2ncc(C(=O)O)s2)cc1` | -4.322 | 22.3 | 19.32 |
| `Cc1ccn(-c2ccccc2NCc2cccnc2)n1` | -1.852 | -2.513 | -2.885 |

The first 6 entries again:

- CCC1CN(C(=O)c2cccc(O)c2)CCC(=O)N1Cc1ccccc1 (stereo not shown) : A: -1.886%; B: -20.55%; C: -2.303%
- Cc1nccc(CNC(=O)NCC(C)Oc2ccccc2F)n1 (stereo not shown) : A: 0.641%; B: -12.17%; C: -0.7371%
- CN1CCC(N(C)CCC(=O)N2CCN(Cc3cccc(F)c3)CC2)C1 (stereo not shown) : A: 1.188%; B: -32.62%; C: -1.951%
- O=S1(=O)CCC(CNc2cc(-c3ccccc3)nc3ccnn23)C1 (stereo not shown) : A: 1.254%; B: 8.406%; C: 3.422%
- Cc1ccc(S(=O)(=O)NC(=O)c2cccc(OCC(N)=O)c2)s1 : A: 4.799%; B: -23.28%; C: 5.656%
- CCNc1ncc2c(n1)CN(c1ccc(CC)cc1)C2=O : A: -3.109%; B: -20.27%; C: -1.155%